Reference: patent publication US10654890B2, “Cyclic peptide derivative, method for preparing same and composition thereof” (priority 2014, dated 2020)
At least one compound was matched to its structure with a doubt left.

System: culture astrocyte
Assay: Astrocyte proliferative activity test (BrdU cell proliferation ELISA)
Format: cell-based, mouse
Conditions: 25 μM; FIG. 8 and FIG. 9
Description: A pregnant ICR female mouse was purchased from Japan SLC, Inc., and a neonatal mouse 24 to 48 after birth was used for the test.
A neonatal ICR mouse (24 to 48 after birth) was sufficiently sterilized with 70% ethanol, immersed in 30 ml of PBS (−) in a 100 mm dish (diameter of 100 mm, Orange Scientific) for cell culture, and then placed in a clean bench. The neonatal mouse was subjected to cervical dislocation using tweezers and euthanized. Head of the neonatal mouse was open and the entire brain was removed. The obtained brain was transferred to a 100 mm dish for cell culture in which 15 ml of high glucose Dulbecco's modified Eagle medium (HG-D-MEM, Wako Pure Chemical Industries, Ltd.) is added. By using tweezers, the olfactory bulb, median eminence, and meninges were removed in the medium to obtain only a cerebrum having hippocampus. Subsequently, the obtained cerebrum was transferred to a 100 mm dish for cell culture added with 10 ml of HG-D-MEM, and using a scalpel, the cerebrum was finely cut to be 1 mm^2 or less. […] To remove the remaining cell mass from this cell dispersion, the cell dispersion was passed through a cell strainer (pore diameter of 100 μm, BD Falcon™), and the number of cells in the cell dispersion which has passed through the cell strainer was counted by using a cell counting plate. […]

In the case of `COc1ccc2c3c1O[C@H]1C[C@@H](O)C=C[C@@]31CCN(C)C2` [galantamine, reference compound], the astrocyte proliferative activity is reported as “no significant astrocyte proliferative activity was observed”.
